# Assay results published in ChEMBL document CHEMBL5674883, “The Heterochromatin Landscape in Migrating Cells and the Importance of H3K27me3 for Associated Transcriptome Alterations” (Cells, 2018).
# By UniProt entry, the sequences of proteins in these tests, tags left out.
# UniProt Q61188, whole entry: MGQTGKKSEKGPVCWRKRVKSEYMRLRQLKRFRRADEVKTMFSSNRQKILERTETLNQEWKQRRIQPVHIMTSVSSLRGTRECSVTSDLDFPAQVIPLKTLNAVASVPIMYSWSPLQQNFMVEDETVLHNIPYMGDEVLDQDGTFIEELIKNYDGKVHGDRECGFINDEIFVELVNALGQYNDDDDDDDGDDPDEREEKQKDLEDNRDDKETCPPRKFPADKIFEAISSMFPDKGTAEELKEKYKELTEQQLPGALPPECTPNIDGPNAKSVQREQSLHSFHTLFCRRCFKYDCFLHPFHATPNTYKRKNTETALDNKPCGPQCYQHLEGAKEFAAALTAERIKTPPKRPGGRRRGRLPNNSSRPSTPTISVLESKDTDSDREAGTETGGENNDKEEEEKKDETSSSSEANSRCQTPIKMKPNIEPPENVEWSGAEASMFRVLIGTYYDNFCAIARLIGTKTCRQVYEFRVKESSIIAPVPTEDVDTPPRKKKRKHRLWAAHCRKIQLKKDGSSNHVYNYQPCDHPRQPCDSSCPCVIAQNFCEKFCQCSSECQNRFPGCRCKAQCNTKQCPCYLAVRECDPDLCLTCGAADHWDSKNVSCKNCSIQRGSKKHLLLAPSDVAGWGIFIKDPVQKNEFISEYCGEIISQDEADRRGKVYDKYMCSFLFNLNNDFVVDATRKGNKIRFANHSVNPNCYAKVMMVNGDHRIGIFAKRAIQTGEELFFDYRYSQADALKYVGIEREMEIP
# Further values from the same series stand in other lists.
# Legend:
# Type in all cases: cell-based
# [1] = molecular target: T1, RNA polymerase II (Mus musculus) (UniProt P08775+Q8CFI7+P97760+A0A3Q4L2S8+Q80UW8+P61219+P62488+Q923G2+P60898+O08740+Q63871+P62876); test: Inhibition of RNA polymerase II in mouse B16-F1 migrating cells assessed as fold change in Canx-RNA stability at 0.1 mM measured by ChIP-seq analysis relative to control cells
# [2] = molecular target: T1, RNA polymerase II (Mus musculus); test: Inhibition of RNA polymerase II in mouse B16-F1 migrating cells assessed as fold change in Sclt1-RNA stability at 0.1 mM measured by ChIP-seq analysis relative to control cells
# [3] = molecular target: T1, RNA polymerase II (Mus musculus); test: Inhibition of RNA polymerase II in mouse B16-F1 migrating cells assessed as fold change in Slmap-RNA stability at 0.1 mM measured by ChIP-seq analysis relative to control cells
# [4] = molecular target: T1, RNA polymerase II (Mus musculus); test: Inhibition of RNA polymerase II in mouse B16-F1 migrating cells assessed as fold change in Qk-RNA stability at 0.1 mM measured by ChIP-seq analysis relative to control cells
# [5] = molecular target: T1, RNA polymerase II (Mus musculus); test: Inhibition of RNA polymerase II in mouse B16-F1 migrating cells assessed as fold change in Cdkn2aip-RNA stability at 0.1 mM measured by ChIP-seq analysis relative to control cells
# [6] = molecular target: T1, RNA polymerase II (Mus musculus); test: Inhibition of RNA polymerase II in mouse B16-F1 migrating cells assessed as fold change in Mrpl51-RNA stability at 0.1 mM measured by ChIP-seq analysis relative to control cells
# [7] = molecular target: T1, RNA polymerase II (Mus musculus); test: Inhibition of RNA polymerase II in mouse B16-F1 migrating cells assessed as fold change in Rps6kb1-RNA stability at 0.1 mM measured by ChIP-seq analysis relative to control cells
# [8] = molecular target: T1, RNA polymerase II (Mus musculus); test: Inhibition of RNA polymerase II in mouse B16-F1 migrating cells assessed as fold change in Ccnf-RNA stability at 0.1 mM measured by ChIP-seq analysis relative to control cells
# [9] = molecular target: T1, RNA polymerase II (Mus musculus); test: Inhibition of RNA polymerase II in mouse B16-F1 migrating cells assessed as fold change in BC003331-RNA stability at 0.1 mM measured by ChIP-seq analysis relative to control cells
# [10] = molecular target: T1, RNA polymerase II (Mus musculus); test: Inhibition of RNA polymerase II in mouse B16-F1 migrating cells assessed as fold change in Trp53inp1-RNA stability at 0.1 mM measured by ChIP-seq analysis relative to control cells
# [11] = molecular target: T1, RNA polymerase II (Mus musculus); test: Inhibition of RNA polymerase II in mouse B16-F1 migrating cells assessed as fold change in Wac-RNA stability at 0.1 mM measured by ChIP-seq analysis relative to control cells
# [12] = molecular target: T1, RNA polymerase II (Mus musculus); test: Inhibition of RNA polymerase II in mouse B16-F1 migrating cells assessed as fold change in Vps50-RNA stability at 0.1 mM measured by ChIP-seq analysis relative to control cells
# [13] = molecular target: T1, RNA polymerase II (Mus musculus); test: Inhibition of RNA polymerase II in mouse B16-F1 migrating cells assessed as fold change in Abhd12-RNA stability at 0.1 mM measured by ChIP-seq analysis relative to control cells
# [14] = molecular target: T1, RNA polymerase II (Mus musculus); test: Inhibition of RNA polymerase II in mouse B16-F1 migrating cells assessed as fold change in Nr3c1-RNA stability at 0.1 mM measured by ChIP-seq analysis relative to control cells
# [15] = molecular target: T1, RNA polymerase II (Mus musculus); test: Inhibition of RNA polymerase II in mouse B16-F1 migrating cells assessed as fold change in E2f2-RNA stability at 0.1 mM measured by ChIP-seq analysis relative to control cells
# [16] = molecular target: T1, RNA polymerase II (Mus musculus); test: Inhibition of RNA polymerase II in mouse B16-F1 migrating cells assessed as fold change in Itgb1bp1-RNA stability at 0.1 mM measured by ChIP-seq analysis relative to control cells
# [17] = molecular target: T1, RNA polymerase II (Mus musculus); test: Inhibition of RNA polymerase II in mouse B16-F1 migrating cells assessed as fold change in CT030181.1-RNA stability at 0.1 mM measured by ChIP-seq analysis relative to control cells
# [18] = molecular target: T1, RNA polymerase II (Mus musculus); test: Inhibition of RNA polymerase II in mouse B16-F1 migrating cells assessed as fold change in Tmem184c-RNA stability at 0.1 mM measured by ChIP-seq analysis relative to control cells
# [19] = molecular target: T1, RNA polymerase II (Mus musculus); test: Inhibition of RNA polymerase II in mouse B16-F1 migrating cells assessed as fold change in Sp4-RNA stability at 0.1 mM measured by ChIP-seq analysis relative to control cells
# [20] = molecular target: T1, RNA polymerase II (Mus musculus); test: Inhibition of RNA polymerase II in mouse B16-F1 migrating cells assessed as fold change in Eya4-RNA stability at 0.1 mM measured by ChIP-seq analysis relative to control cells
# [21] = molecular target: T1, RNA polymerase II (Mus musculus); test: Inhibition of RNA polymerase II in mouse B16-F1 migrating cells assessed as fold change in Tpgs1-RNA stability at 0.1 mM measured by ChIP-seq analysis relative to control cells
# [22] = molecular target: T1, RNA polymerase II (Mus musculus); test: Inhibition of RNA polymerase II in mouse B16-F1 migrating cells assessed as fold change in Agtrap-RNA stability at 0.1 mM measured by ChIP-seq analysis relative to control cells
# [23] = molecular target: Histone-lysine N-methyltransferase EZH2 (Mus musculus) (UniProt Q61188); test: Inhibition of EZH2 in mouse B16-F1 migrating cells assessed as fold change in H3K27me3-buffered regulated Fdft1-mRNA expression at 3 uM measured by ChIP-seq analysis relative to control cells
# [24] = molecular target: Histone-lysine N-methyltransferase EZH2 (Mus musculus) (UniProt Q61188); test: Inhibition of EZH2 in mouse B16-F1 migrating cells assessed as fold change in H3K27me3-independent regulated Bsg-mRNA expression at 3 uM measured by ChIP-seq analysis relative to control cells
# [25] = molecular target: Histone-lysine N-methyltransferase EZH2 (Mus musculus) (UniProt Q61188); test: Inhibition of EZH2 in mouse B16-F1 migrating cells assessed as fold change in H3K27me3-buffered regulated Zfp217-mRNA expression at 3 uM measured by ChIP-seq analysis relative to control cells
# [26] = molecular target: Histone-lysine N-methyltransferase EZH2 (Mus musculus) (UniProt Q61188); test: Inhibition of EZH2 in mouse B16-F1 migrating cells assessed as fold change in H3K27me3-buffered regulated Tnfaip8-mRNA expression at 3 uM measured by ChIP-seq analysis relative to control cells
# [27] = molecular target: Histone-lysine N-methyltransferase EZH2 (Mus musculus) (UniProt Q61188); test: Inhibition of EZH2 in mouse B16-F1 migrating cells assessed as fold change in H3K27me3-buffered regulated Esco1-mRNA expression at 3 uM measured by ChIP-seq analysis relative to control cells
# [28] = molecular target: Histone-lysine N-methyltransferase EZH2 (Mus musculus) (UniProt Q61188); test: Inhibition of EZH2 in mouse B16-F1 migrating cells assessed as fold change in H3K27me3-buffered regulated Atg16l2-mRNA expression at 3 uM measured by ChIP-seq analysis relative to control cells
# [29] = molecular target: Histone-lysine N-methyltransferase EZH2 (Mus musculus) (UniProt Q61188); test: Inhibition of EZH2 in mouse B16-F1 migrating cells assessed as fold change in H3K27me3-buffered regulated Mtm1-mRNA expression at 3 uM measured by ChIP-seq analysis relative to control cells
# [30] = molecular target: Histone-lysine N-methyltransferase EZH2 (Mus musculus) (UniProt Q61188); test: Inhibition of EZH2 in mouse B16-F1 migrating cells assessed as fold change in H3K27me3-buffered regulated Piwil2-mRNA expression at 3 uM measured by ChIP-seq analysis relative to control cells
smiles,measurement,setting,value
OC[C@H]1O[C@@H](n2cnc3cc(Cl)c(Cl)cc32)[C@H](O)[C@@H]1O,log2FC,[1],-0.71
same,log2FC,[2],-0.96
same,log2FC,[3],-0.69
same,log2FC,[4],-0.63
same,log2FC,[5],-1.07
same,log2FC,[6],0.42
same,log2FC,[7],-0.64
same,log2FC,[8],-0.6
same,log2FC,[9],-0.84
same,log2FC,[10],-0.87
same,log2FC,[11],-0.48
same,log2FC,[12],-0.57
same,log2FC,[13],0.49
same,log2FC,[14],-0.65
same,log2FC,[15],-0.65
same,log2FC,[16],0.43
same,log2FC,[17],0.68
same,log2FC,[18],-0.68
same,log2FC,[19],-0.78
same,log2FC,[20],-0.74
same,log2FC,[21],0.59
same,log2FC,[22],0.46
CCCc1cc(C)[nH]c(=O)c1CNC(=O)c1cc(-c2ccnc(N3CCN(C)CC3)c2)cc2c1cnn2C(C)C,log2FC,[23],0.46
same,log2FC,[24],0.53
same,log2FC,[25],-0.43
same,log2FC,[26],-0.48
same,log2FC,[27],-0.5
same,log2FC,[28],-0.53
same,log2FC,[29],-0.48
same,log2FC,[30],1.55
